The text below walks through data of PMC10721329, “Quisinostat is a brain-penetrant radiosensitizer in glioblastoma” (JCI Insight, 2023).

Values joined by “and” are separate entries in the source; they are usually repeats but may differ in a detail not shown here. Equal entries are not always repeated. This continues a long series; more values of the same kind are listed elsewhere.

Series [1] can be described thus: Stability in mouse plasma and brain homogenate at 4°C. Format: in vitro ADME. The note with it: 1000 nM. How it is done: Hydroxamic acid–based compounds have been reported to display poor stability and high plasma clearance due to the presence of arylesterases and carboxylesterases in rodent blood ([34]). Therefore, we measured the stability of QST in mouse plasma and brain to determine whether drug degradation occurred during our sample preparations and equilibrium dialyses for the determination of unbound drug level (performed at 37°C). […] QST degradation was also observed in mouse brain homogenate (Figure 6B). However, perfusion of mice before brain collection prevented rapid drug degradation in the brain matrix. […] Degradation of QST can also be constrained if plasma and brain samples are processed at 4°C (Supplemental Figure 4A). All subsequent sample preparations were therefore performed on ice-cold baths to avoid degradation of QST in our PK analyses. […] The observed stability is probably due to the absence of esterases in human matrices, which are responsible for degradation of QST ([34]). Because we employed QST in several in vitro studies (Figures 1–4), the stability of the molecule was also tested in the cell media used to culture GSCs (neurobasal medium; see Methods).
Stability Study in Mouse Plasma, Mouse Brain, Human Plasma, Human Brain, and Neural […]
The stability of QST was determined in BALB/c mouse plasma, male nude athymic perfused and nonperfused mouse brain homogenate (1:9 w/v of PBS; pH 7.4), human brain (obtained from VRL Eurofins) homogenate (1:4 w/v of PBS; pH 7.4), pooled human plasma (Innovative Research), and neurobasal media. QST stock solutions (1 mM) were prepared in acetonitrile, subsequently diluted in a 40% methanol mixture, and added t o the matrices to make final concentrations of 100 nM or 10 nM. Then 50 or 30 µL of either plasma or brain homogenate containing QST were aliquoted into 1.5-mL microcentrifuge tubes (Eppendorf) and were incubated at either 4 °C or 37 °C for 0, 2, 4, 6, 12, or 24 hours (n = 3 at each time point).
The stability of QST in mouse plasma was also tested at 0, 2, 8, 16, or 24 hours (n = 3 at each time point) in the presence of esterase inhibitors: 0.25 mM BNPP, 1mM dithiobis(2-nitrobenzoic acid) (DTNB), or 1.25 mM phenylmethylsulfonyl fluoride (PMSF). Plasma and brain homogenate samples were stored at −80 °C until LC-MS/MS analysis. […]
Supplemental Figure 4. Stability of QST in mouse plasma is improved upon addition of esterase inhibitors. (A) Stability of QST (100 nM) in mouse plasma and mouse brain homogenate when sample preparation is performed at 4 °C. (B) Stability of QST (500 nM) in mouse plasma spiked with 3 different esterase inhibitors: 0.25 mM bis(p-nitrophenyl) phosphate (BNPP), 1.25 mM phenylmethylsulfonyl fluoride (PMSF), and 1 mM dithiobis(2-nitrobenzoic acid) (DTNB) over the course of 24 hours at 37 °C. (C) Stability of QST (10 nM and 100 nM) in neurobasal cell culture medium over the course of 24 hours at 37 °C.

Series [2] is described as follows: Total QST levels in plasma and flank tumors (LC-MS/MS). Particulars: individual mice. The series is classed as in vivo. The method, then:
QST concentrations in specimens were measured using reverse-phase LC on the AB SCIEX QTRAP6500+ LC-MS/MS system by operating electrospray in the positive ion mode. For liquid chromatographic separation, gradient elution was performed using a Phenomenex Kinetex F5 100 Å column (100 × 2.1 mm, 2.6 μm). The initial composition of the mobile phase was 70% phase A (0.1% formic acid in water) and 30% phase B (0.1% formic acid in 1:1 acetonitrile/methanol) with a 0.35 mL/min flow rate. Gradient elution was achieved as follows: mobile phase (B) was maintained at 30% from 0 to 0.3 minutes, increased to 95% from 0.3 to 0.8 minutes, maintained at 95% from 0.8 to 2.5 minutes, and decreased to 30% from 2.5 to 2.8 minutes. The total run time was 3.5 minutes. The internal standard used in this study was D8-infigratinib. The retention times for QST and D8-infigratinib were 1.6 and 1.8 minutes, respectively. Mass-to-charge ratio transitions were as follows: 395.20 → 144.00 (QST) and 568.08 → 321.00 (D8-infigratinib). LC-MS/MS analysis was performed using an Analyst 1.7 Chromatographic Data System. See Supplemental Methods for detailed PK experiments. […]
treated with 2 Gy of ionizing radiation on MWF for a total 6 Gy (3 doses). Ionizing radiation was administered with the RS2000 series biological research irradiator (Rad Source Technologies).
Treatment of Flank-Implanted Mice with QST and/or Radiation
Implanted flank tumors were allowed to grow until the tumor size reached 100 mm3 volume. Mice were randomized into groups before treatment and underwent treatment on MWF for the entire duration of the experiment until the tumor volumes exceeded 2000 mm3. Treatment groups included vehicle (50% PEG-300), QST alone (10 mg/kg), flank IR treatment with vehicle (2 Gy), and flank IR treatment (2 Gy) with QST (10 mg/kg). For mice receiving IR treatment with or without QST, mice were treated with 2 Gy on MWF for a total 6 Gy during the first week of treatment. QST was administered to mice through intraperitoneal injections 2 hours before flank tumor radiation treatment. Upon completion of the radiation regimen, IR-treated mice subsequently received QST or vehicle alone for the rest of the experiment. Tumor growth and treatment response were monitored by manually measuring the tumor area twice per week starting at 13 days after implantation. Upon reaching the tumor volume threshold (2000 mm3), mice were sacrificed, and plasma and tissue samples were harvested for PD and PK analyses 2 hours after treatment with a final dose of QST (10 mg/kg). […]
Calibration Standards and Quality Control Samples
Stock solutions of standard (1 mM QST) and IS (250 µM D8-infigratinib) were prepared in acetonitrile. […]

As for `Cn1cc(CNCC2CCN(c3ncc(C(=O)NO)cn3)CC2)c2ccccc21` [QST, quisinostat], the “%stability” value was 100.0% and 96.5% and 101.8% in series [1] (mouse brain homogenate, time 0 hrs); 96.4% and 99.4% and 93.3% and 96.6% in series [1] (mouse brain homogenate, time 2 hrs); 85.2% and 86.7% and 83.1% and 85.9% in series [1] (mouse brain homogenate, time 4 hrs); 100.0% and 103.7% and 98.6% and 97.7% in series [1] (mouse plasma, time 0 hrs); 89.7% and 90.2% and 88.5% and 90.3% in series [1] (mouse plasma, time 2 hrs); 84.3% and 83.7% and 83.9% and 85.4% in series [1] (mouse plasma, time 4 hrs). The “[QST] total, flank tumor” value in series [2] (Combination (QST + IR) cohort) was 326.045 nM and 438.51 nM and 715.84 nM and 522.205 nM; in series [2] (QST monotherapy cohort), 218.335 nM and 510.52 nM and 656 nM and 530 nM. Further, the “[QST] total, plasma” value in series [2] (Combination (QST + IR) cohort) was 145.297 nM and 183.073 nM and 293.069 nM and 484.504 nM; in series [2] (QST monotherapy cohort) it was 48.976 nM and 337.539 nM and 363.571 nM.
